# These are yes or no findings as the source states them, for the method shown. In cells and extracts the contact can be indirect. Binding can be weak; no strength is given. For part of these data: Sequences can lack the tags named with a protein.
# The chains behind the UniProt entries cited, without tags or fusion partners. Where a name states a change or a piece, a line headed by the entry shows the natural chain unless it says otherwise. Residues count along the entry.
# UniProt Q94C78: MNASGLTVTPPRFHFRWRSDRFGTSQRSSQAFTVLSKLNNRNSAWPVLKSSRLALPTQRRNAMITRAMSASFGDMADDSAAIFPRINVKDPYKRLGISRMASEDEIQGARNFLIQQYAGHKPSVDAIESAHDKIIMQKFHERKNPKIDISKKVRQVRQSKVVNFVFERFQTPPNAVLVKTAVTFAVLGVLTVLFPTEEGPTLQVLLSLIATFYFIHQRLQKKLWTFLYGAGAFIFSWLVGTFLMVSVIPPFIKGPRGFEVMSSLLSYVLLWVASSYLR
# UniProt O22476, residues 24-1196: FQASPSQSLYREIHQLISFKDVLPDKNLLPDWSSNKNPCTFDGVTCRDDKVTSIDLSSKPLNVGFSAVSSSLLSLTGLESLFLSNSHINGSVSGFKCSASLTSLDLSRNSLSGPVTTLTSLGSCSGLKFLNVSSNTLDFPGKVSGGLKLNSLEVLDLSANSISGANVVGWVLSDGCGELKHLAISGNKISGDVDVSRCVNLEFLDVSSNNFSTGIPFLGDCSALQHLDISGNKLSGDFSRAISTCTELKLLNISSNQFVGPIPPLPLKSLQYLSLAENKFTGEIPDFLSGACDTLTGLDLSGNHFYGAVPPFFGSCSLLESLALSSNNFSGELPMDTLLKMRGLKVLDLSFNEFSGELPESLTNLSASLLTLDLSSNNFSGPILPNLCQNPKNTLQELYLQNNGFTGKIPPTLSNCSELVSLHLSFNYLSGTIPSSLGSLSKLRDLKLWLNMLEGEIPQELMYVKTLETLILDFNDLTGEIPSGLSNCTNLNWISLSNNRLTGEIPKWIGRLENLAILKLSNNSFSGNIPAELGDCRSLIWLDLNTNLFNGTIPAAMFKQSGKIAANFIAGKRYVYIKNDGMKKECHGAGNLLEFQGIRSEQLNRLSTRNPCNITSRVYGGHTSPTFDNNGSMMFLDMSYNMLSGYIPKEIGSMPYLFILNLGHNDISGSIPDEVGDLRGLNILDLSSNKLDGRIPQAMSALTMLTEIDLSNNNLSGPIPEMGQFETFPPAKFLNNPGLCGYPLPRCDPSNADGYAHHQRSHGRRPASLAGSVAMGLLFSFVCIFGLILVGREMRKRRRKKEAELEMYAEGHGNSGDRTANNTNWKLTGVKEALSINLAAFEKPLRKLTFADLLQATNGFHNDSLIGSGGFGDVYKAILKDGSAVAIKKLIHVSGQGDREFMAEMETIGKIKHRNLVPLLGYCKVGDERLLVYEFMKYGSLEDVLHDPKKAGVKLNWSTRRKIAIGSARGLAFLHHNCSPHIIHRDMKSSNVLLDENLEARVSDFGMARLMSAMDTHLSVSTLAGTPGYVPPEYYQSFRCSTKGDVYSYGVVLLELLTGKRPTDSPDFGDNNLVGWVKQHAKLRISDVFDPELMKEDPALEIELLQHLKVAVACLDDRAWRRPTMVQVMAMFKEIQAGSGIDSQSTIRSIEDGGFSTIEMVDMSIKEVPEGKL
# UniProt Q9ZWC8: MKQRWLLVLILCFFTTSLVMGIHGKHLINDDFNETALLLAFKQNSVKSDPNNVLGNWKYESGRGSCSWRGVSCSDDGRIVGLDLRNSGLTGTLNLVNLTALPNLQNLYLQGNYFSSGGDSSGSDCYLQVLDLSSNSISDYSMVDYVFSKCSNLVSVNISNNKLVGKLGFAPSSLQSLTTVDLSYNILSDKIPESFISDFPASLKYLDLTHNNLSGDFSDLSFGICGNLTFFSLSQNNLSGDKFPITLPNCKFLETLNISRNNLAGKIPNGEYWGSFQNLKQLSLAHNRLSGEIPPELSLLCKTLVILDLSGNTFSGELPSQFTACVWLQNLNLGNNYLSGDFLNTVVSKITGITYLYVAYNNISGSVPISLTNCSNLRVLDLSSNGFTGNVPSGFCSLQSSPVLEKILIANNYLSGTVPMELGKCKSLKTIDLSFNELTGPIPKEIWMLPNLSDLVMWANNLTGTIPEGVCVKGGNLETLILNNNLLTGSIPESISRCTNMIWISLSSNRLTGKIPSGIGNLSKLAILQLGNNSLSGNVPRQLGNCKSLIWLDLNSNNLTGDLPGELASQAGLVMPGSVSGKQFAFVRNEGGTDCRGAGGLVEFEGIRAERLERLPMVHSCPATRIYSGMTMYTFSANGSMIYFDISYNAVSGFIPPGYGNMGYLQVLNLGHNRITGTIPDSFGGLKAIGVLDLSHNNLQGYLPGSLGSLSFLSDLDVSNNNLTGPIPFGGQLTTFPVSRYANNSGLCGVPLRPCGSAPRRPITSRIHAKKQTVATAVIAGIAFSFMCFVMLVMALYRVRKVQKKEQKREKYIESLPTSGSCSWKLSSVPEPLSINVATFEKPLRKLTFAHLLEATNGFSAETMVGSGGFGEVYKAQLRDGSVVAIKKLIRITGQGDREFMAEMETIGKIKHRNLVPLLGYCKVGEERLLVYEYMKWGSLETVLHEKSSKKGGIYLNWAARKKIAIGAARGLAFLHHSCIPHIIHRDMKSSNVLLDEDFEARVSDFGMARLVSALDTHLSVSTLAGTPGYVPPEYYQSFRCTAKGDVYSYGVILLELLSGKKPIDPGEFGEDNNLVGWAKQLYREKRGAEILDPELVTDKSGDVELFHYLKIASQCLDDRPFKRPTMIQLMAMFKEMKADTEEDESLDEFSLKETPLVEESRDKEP
# What was measured:
# [1] = target: DAY-GFP (Arabidopsis thaliana) (UniProt Q94C78); assay: co-IP; total proteins of 7 days old 35S::DAY-GFP Arabidopsis seedlings (WT Col-0 as control), GFP-Trap Agarose 6 h in the cold room, four washes with co-IP buffer; anti-BRI1 immunoblot
# [2] = target: Flag-BRI1 KD with the CT domain (UniProt O22476); assay: pull-down; Flag-tagged BRI1 cytosolic constructs immobilised on resin, incubated with E. coli lysates expressing MBP or MBP-DAY variants; 20 mM Tris-HCl pH 7.5, 200 mM NaCl, 10% glycerol, 1% IGEPAL, 1 h at room temperature; immunoblotting; only the target purified
# [3] = target: Flag-BRI1 KD with the JM domain (UniProt O22476); assay: as above
# [4] = target: cytosolic domain of BRI1-Like 1 (BRL1) (UniProt Q9ZWC8); assay: pull-down; MBP-DAY and the cytosolic domain of BRL1 (Supplementary Fig. 20b); who was immobilised is not given
# [5] = target: BRI1-nYFP (UniProt O22476); assay: split reporter; BRI1-nYFP and DAY-cYFP co-expressed; N. benthamiana epidermal cells observed two days after agroinfiltration; compared with SYP61-mRFP (TGN/EE)
# [6] = target: MBP-∆cTP DAY (Arabidopsis thaliana); assay: pull-down; MBP or MBP-∆cTP DAY immobilised on amylose agarose resin, incubated with lysates of E. coli cells expressing the prey; 20 mM Tris-HCl pH 7.5, 200 mM NaCl, 10% glycerol, 1% IGEPAL, 1 h at room temperature; eluates immunoblotted (anti-GST or anti-Flag); only the target purified
molecule,measurement,setting,value
native BRI1 (from UniProt O22476 24-1196) (receptor),binding,[1],binds
MBP-DAY (from UniProt Q94C78),binding,[2],binds
same,binding,[3],binds
same,binding,[4],binds
DAY-cYFP (from UniProt Q94C78),binding,[5],binds
"GST-CPP1 (protein, UniProt Q9FN50 49-258) TVDSSYGGNVPTFPRTRVWDPYKRLGVSPYASEEEIWASRNFLLQQYAGHERSEESIEGAFEKLLMSSFIRRKKTKINLKSKLKKKVEESPPWLKALLDFVEMPPMDTIFRRLFLFAFMGGWSIMNSAEGGPAFQVAVSLAACVYFLNEKTKSLGRACLIGIGALVAGWFCGSLIIPMIPTFLIQPTWTLELLTSLVAYVFLFLSCTFLK",binding,[6],binds

# — PMC8263706
